Ends that are not written are not given here.
Test: general procedure: Fmoc solid-phase peptide synthesis; 2-chlorotrityl resin (CTC)
Conditions: for crude HPLC purity: whole synthesis

CCEYCCNPACTGCY (cysteine pairing not given here)
crude purity (method not given) (oxidative folding step, HPLC): 70% | final HPLC purity (oxidative folding step, run 1): 98.9% | final HPLC purity (oxidative folding step, run 2): >99% | crude HPLC purity (run 1): 81% | crude HPLC purity (run 2): 80%
